The list shows a part of the results. Residues, ends and D or L forms follow the SMILES beside them. *: point of attachment. Cbz = O=C(OCc1ccccc1)*
Experiments:
Assay in all cases: log2 fold change, soluble protein after heating vs DMSO (PISA); higher = thermal stabilisation; K562 cells, 10 uM, 30 min; active = over 0.2 and 3.5 SD of the protein, either way, in both replicates (recomputed)
IRAK-1-4 Inhibitor I = compound: C1COCCN1CCN2C3=CC=CC=C3N=C2NC(=O)C4=CC(=CC=C4)[N+](=O)[O-] [IRAK-1-4 Inhibitor I]
In short: (§1)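 K562 cells at 2×10^6 cells/mL were treated with 10 μM compound for 30 min. Aliquots were heated for 3 min across 48°C-58°C, pooled, and extracted in PBS with 0.5% NP-40 at 4°C; soluble protein was the supernatant after 21,000xg for 90 min. Soluble protein was quantified by TMTpro 16plex LC-MS/MS with channel sums equalised, and reported as log2 fold change in thermal stability against DMSO controls, with values from duplicates.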

The chains behind the UniProt entries cited, without tags or fusion partners. Where a name states a change or a piece, a line headed by the entry shows the natural chain unless it says otherwise.
UniProt Q9HA47: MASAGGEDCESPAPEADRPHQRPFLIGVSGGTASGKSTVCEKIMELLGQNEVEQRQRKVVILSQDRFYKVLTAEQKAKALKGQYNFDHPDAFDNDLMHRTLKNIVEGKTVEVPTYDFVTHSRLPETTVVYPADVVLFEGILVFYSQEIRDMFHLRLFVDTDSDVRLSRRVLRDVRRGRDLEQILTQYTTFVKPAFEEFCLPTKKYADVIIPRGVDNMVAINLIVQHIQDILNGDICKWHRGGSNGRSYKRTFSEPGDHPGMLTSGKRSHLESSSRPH
UniProt Q9BRT2: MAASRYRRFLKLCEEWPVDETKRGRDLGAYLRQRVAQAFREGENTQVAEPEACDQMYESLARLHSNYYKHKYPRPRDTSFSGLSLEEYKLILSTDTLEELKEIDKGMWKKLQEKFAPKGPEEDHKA
UniProt Q9H1C4: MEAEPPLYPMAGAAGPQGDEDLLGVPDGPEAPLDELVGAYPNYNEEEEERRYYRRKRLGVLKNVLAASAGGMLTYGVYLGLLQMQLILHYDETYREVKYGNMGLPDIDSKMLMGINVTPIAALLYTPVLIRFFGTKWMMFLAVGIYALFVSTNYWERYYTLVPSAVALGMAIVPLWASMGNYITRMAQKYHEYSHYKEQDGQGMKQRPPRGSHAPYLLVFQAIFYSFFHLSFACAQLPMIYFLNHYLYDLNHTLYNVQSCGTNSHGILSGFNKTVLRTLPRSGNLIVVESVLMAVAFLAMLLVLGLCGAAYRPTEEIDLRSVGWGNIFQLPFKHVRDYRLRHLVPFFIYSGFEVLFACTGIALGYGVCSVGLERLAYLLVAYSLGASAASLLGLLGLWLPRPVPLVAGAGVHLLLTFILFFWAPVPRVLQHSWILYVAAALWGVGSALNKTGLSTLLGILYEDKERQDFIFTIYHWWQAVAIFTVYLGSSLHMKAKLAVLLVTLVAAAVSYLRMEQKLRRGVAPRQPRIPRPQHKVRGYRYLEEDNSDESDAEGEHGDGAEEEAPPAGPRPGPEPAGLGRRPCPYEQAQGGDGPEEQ
UniProt Q9P2Y5: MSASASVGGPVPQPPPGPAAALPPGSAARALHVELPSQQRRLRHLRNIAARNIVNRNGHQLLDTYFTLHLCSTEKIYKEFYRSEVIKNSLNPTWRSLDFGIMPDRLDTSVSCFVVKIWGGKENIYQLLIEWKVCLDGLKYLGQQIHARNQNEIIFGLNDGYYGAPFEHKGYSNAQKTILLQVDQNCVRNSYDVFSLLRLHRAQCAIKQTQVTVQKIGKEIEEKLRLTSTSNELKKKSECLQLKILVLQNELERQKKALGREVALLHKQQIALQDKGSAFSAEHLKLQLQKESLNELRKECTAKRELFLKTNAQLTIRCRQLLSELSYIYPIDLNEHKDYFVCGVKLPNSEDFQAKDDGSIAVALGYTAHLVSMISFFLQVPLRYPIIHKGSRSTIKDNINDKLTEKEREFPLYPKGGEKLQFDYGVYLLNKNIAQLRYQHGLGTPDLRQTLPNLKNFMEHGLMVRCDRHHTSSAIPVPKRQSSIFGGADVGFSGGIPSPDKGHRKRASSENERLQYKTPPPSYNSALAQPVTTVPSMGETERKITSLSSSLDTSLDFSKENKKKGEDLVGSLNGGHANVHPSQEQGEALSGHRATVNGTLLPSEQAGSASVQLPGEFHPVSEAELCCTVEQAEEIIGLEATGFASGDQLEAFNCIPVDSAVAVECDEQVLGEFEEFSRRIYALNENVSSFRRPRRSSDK
UniProt Q9BZL1: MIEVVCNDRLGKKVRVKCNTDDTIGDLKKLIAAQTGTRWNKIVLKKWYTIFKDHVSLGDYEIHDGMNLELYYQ
UniProt Q8TAA9: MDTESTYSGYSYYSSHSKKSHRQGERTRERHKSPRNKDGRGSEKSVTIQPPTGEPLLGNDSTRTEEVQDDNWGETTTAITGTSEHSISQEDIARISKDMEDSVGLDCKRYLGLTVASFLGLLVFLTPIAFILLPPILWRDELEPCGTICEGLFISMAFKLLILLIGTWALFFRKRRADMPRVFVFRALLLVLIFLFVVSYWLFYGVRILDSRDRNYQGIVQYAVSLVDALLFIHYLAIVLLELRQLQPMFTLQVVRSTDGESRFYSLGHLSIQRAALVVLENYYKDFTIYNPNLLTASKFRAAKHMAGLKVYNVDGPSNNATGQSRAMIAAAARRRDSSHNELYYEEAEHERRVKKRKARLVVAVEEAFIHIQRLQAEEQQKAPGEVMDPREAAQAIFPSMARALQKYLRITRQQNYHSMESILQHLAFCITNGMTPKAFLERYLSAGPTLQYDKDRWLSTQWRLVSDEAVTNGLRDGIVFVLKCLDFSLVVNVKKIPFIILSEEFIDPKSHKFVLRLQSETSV
UniProt Q9BV40: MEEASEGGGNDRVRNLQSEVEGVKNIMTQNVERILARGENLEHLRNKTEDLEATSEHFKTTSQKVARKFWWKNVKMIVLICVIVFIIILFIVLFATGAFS
UniProt Q9Y5T5, whole entry, looked up: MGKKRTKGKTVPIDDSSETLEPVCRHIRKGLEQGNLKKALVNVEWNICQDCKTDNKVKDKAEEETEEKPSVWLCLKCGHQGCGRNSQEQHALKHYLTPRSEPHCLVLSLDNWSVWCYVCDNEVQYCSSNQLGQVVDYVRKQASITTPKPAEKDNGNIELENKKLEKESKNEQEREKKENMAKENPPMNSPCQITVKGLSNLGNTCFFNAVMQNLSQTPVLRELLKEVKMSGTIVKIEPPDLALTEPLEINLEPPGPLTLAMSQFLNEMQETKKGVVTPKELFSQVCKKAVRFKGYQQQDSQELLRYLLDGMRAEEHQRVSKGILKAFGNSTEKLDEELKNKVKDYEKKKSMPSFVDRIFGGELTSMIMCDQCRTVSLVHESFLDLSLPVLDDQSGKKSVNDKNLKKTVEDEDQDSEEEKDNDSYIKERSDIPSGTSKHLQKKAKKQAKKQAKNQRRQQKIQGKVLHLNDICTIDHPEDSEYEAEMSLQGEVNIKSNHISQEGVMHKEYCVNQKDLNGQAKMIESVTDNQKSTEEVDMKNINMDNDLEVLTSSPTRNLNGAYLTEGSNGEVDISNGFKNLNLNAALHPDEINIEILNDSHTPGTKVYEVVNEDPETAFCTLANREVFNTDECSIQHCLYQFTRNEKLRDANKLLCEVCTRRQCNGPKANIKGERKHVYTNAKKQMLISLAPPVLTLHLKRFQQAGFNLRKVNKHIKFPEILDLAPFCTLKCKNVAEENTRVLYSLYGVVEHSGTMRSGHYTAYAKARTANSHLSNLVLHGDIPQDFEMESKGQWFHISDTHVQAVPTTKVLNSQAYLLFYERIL
UniProt P11441: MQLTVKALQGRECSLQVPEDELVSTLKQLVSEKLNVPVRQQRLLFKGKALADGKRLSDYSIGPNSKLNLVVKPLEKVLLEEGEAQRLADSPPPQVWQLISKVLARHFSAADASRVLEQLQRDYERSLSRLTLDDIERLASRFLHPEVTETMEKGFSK
UniProt Q08AM6: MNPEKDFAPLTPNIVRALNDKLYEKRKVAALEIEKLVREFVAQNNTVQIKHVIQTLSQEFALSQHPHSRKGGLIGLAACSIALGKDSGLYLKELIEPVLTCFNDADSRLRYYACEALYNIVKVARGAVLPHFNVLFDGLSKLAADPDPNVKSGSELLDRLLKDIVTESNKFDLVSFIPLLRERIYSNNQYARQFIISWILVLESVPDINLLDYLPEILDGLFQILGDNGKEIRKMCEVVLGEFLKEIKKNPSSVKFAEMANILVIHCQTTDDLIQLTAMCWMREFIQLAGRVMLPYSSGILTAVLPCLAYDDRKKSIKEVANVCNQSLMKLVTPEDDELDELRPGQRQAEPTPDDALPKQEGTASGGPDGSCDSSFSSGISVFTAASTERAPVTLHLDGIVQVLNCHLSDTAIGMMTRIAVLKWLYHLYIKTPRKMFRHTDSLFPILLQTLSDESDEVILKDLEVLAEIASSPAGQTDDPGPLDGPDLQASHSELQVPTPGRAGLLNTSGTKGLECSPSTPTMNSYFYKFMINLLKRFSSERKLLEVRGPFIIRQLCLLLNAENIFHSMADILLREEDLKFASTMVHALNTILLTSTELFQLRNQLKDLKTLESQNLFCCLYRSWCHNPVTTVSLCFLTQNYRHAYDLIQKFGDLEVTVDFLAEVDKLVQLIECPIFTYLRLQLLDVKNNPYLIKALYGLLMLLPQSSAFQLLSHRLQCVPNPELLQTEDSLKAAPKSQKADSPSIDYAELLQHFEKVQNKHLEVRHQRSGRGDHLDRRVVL
UniProt P07919: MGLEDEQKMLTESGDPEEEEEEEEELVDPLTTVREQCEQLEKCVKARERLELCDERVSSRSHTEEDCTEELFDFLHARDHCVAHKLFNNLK
UniProt P18206: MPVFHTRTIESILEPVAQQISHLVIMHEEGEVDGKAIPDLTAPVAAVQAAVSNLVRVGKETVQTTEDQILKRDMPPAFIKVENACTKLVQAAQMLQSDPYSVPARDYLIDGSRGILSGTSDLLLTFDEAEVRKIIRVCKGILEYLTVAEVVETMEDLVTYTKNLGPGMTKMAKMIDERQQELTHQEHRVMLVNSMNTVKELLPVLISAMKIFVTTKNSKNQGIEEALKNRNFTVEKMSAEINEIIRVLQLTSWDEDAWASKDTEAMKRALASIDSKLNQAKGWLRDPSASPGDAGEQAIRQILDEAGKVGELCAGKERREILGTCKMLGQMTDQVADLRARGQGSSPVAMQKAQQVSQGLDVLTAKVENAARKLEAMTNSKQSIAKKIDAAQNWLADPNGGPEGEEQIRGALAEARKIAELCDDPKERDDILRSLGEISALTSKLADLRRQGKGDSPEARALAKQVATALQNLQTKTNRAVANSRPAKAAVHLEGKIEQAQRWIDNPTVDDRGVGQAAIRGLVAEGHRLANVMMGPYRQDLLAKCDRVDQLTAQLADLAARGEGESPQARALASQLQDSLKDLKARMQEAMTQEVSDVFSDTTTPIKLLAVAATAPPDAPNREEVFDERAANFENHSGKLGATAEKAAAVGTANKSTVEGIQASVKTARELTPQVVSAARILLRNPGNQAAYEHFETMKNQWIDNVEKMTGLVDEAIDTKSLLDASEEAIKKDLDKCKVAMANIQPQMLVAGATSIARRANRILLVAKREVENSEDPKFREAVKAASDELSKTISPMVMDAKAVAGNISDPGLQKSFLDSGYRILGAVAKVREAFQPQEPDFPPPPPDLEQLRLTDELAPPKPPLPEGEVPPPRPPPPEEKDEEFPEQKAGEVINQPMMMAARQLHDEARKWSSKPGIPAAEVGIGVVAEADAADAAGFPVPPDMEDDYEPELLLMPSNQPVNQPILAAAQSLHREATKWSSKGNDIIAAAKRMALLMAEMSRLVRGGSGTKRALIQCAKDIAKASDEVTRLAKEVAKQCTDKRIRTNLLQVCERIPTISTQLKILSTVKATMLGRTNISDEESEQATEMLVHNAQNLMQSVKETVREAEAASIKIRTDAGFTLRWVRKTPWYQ
UniProt Q9Y4E8: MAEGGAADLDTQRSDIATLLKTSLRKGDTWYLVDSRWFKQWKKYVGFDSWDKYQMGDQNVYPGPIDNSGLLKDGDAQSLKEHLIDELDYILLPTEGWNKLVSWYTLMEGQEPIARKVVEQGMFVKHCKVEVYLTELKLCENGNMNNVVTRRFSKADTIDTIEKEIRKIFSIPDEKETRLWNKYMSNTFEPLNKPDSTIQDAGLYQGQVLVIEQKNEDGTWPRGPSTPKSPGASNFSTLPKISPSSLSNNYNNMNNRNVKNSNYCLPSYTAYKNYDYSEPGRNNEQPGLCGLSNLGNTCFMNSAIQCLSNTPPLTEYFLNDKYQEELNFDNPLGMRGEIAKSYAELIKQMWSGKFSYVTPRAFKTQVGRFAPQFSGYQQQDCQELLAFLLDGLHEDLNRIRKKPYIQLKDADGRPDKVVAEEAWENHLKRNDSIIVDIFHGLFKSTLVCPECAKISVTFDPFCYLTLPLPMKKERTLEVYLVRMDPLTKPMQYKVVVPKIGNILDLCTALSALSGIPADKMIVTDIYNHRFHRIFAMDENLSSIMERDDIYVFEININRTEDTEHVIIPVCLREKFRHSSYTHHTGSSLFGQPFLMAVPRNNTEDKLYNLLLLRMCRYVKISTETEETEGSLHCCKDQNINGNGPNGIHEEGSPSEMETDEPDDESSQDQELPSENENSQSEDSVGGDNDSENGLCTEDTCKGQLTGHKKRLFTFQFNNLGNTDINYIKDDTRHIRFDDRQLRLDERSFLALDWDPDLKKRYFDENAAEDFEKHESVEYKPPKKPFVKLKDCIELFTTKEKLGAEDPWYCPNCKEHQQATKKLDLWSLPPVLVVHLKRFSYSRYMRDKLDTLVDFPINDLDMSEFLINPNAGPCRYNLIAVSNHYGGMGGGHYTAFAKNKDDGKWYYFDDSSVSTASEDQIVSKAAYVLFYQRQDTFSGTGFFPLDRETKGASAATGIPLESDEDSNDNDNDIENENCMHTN

ibrutinib = compound: C=CC(=O)N1CCC[C@@H](n2nc(-c3ccc(Oc4ccccc4)cc3)c3c(N)ncnc32)C1 [ibrutinib]
In short: as §1

[1] = compound: CC(=O)c1cnc2ccc(-c3cc(Cl)c(O)c(Cl)c3)nc2c1N[C@H]1CC[C@H](CN(C)C)CC1
In short: as §1

ralimetinib = compound: CC(C)(C)Cn1c(N)nc2ccc(-c3[nH]c(C(C)(C)C)nc3-c3ccc(F)cc3)nc21 [ralimetinib]
In short: as §1

[2] = compound: CC(C)(O)CC(=O)NCCn1ccc2ncnc(Nc3ccc(Oc4cccc(C(F)(F)F)c4)c(Cl)c3)c21
In short: as §1

[3] = compound: CC(C)C1=C2N=C(C=C(N2N=C1)NCC3=CC=CC=C3)NCCCCCCN
In short: as §1

[4] = compound: CC(C)C[C@@H](C=O)NC(=O)[C@H](CC(C)C)NC(=O)[C@H](CC(C)C)NC(=O)OCc1ccccc1
In short: as §1

pinometostat = compound: CC(C)N(C[C@H]1O[C@@H](n2cnc3c(N)ncnc32)[C@H](O)[C@@H]1O)[C@H]1C[C@@H](CCc2nc3cc(C(C)(C)C)ccc3[nH]2)C1 [pinometostat]
In short: as §1

[5] = compound: CC1=C(C(CC(=O)N1)C2=CC=C(C=C2)C(F)(F)F)C(=O)NC3=C(C=C4C(=C3)C=NN4)F
In short: as §1

[6] = compound: CC1=C(C2=C(C=C1)C(=O)C3=CC=CC=C3N2CCCN)C
In short: as §1

Row | Target | log2 fold change (IRAK-1-4 Inhibitor I) | log2 fold change (ibrutinib) | log2 fold change [1] | log2 fold change (ralimetinib) | log2 fold change [2] | log2 fold change [3] | log2 fold change [4] | log2 fold change (pinometostat) | log2 fold change [5] | log2 fold change [6]
1 | UCK1 (UniProt Q9HA47) | inactive: -0.021 | inactive: 0.043 | inactive: -0.032 | inactive: -0.146 | inactive: -0.156 | inactive: 0.057 | inactive: 0.041 | inactive: -0.034 | inactive: 0.089 | inactive: 0.027
2 | UQCC2 (UniProt Q9BRT2) | inactive: 0.069 | inactive: 0.023 | inactive: -0.022 | inactive: -0.188 | inactive: 0.032 | inactive: -0.072 | inactive: 0.077 | inactive: -0.046 | inactive: 0.059 | inactive: 0.025
3 | USP20 (UniProt Q9Y2K6) | inactive: -0.07 | inactive: -0.064 | inactive: -0.055 | inactive: 0.149 | inactive: 0.078 | inactive: 0.032 | inactive: 0.244 | inactive: 0.062 | inactive: -0.126 | 
4 | UNC93B1 (UniProt Q9H1C4) | inactive: -0.085 | inactive: -0.061 | inactive: 0.052 | inactive: -0.021 | inactive: 0.013 | inactive: -0.135 | inactive: 0.011 | inactive: 0.13 | inactive: 0.039 | 
5 | UVRAG (UniProt Q9P2Y5) | inactive: 0.066 | inactive: -0.022 | inactive: 0.014 | inactive: 0.029 | inactive: -0.041 | inactive: -0.027 | inactive: 0.005 | inactive: -0.013 | inactive: 0.032 | inactive: 0.095
6 | UBL5 (UniProt Q9BZL1) | inactive: -0.03 | inactive: 0.023 | inactive: 0.013 | inactive: 0.045 | inactive: -0.001 | inactive: -0.033 | inactive: 0.069 | inactive: 0.032 | inactive: -0.037 | inactive: -0.105
7 | VAPB (UniProt O95292) | inactive: 0.004 | inactive: 0.015 | inactive: -0.007 | inactive: -0.135 | inactive: -0.003 | inactive: 0.045 | inactive: 0.07 | inactive: -0.044 | inactive: -0.008 | inactive: 0.007
8 | UQCRC1 (UniProt P31930) | inactive: 0.082 | inactive: -0.038 | inactive: 0.021 | inactive: -0.045 | inactive: -0.072 | inactive: 0.033 | inactive: -0.017 | inactive: -0.007 | inactive: 0.02 | inactive: 0.022
9 | VANGL1 (UniProt Q8TAA9) | inactive: -0.038 | inactive: 0.022 | inactive: -0.12 | inactive: 0.041 | inactive: 0.041 | inactive: 0.068 | inactive: 0.076 | inactive: 0.066 | inactive: 0.078 | inactive: -0.053
10 | UGGT2 (UniProt Q9NYU1) | inactive: -0.091 | inactive: -0.031 | inactive: -0.033 | inactive: 0.018 | inactive: -0.013 | inactive: 0.005 | inactive: -0.024 | inactive: -0.017 | inactive: 0.008 | inactive: -0.035
11 | UCHL5 (UniProt Q9Y5K5) | inactive: -0.041 | inactive: -0.051 | inactive: -0.012 | inactive: 0.03 | inactive: -0.028 | inactive: -0.161 | inactive: 0.054 | inactive: -0.004 |  | inactive: -0.018
12 | VAMP8 (UniProt Q9BV40) | inactive: 0.052 | inactive: 0.027 | inactive: 0.02 | inactive: -0.074 | inactive: -0.023 | inactive: -0.011 | inactive: 0.012 | inactive: -0.06 | inactive: 0.008 | inactive: -0.015
13 | USP16 (UniProt Q9Y5T5) | inactive: -0.075 | inactive: -0.09 | inactive: -0.076 | inactive: -0.217 | inactive: 0 | inactive: -0.09 | inactive: 0.028 | inactive: 0.191 | inactive: -0.194 | inactive: -0.013
14 | UBL4A (UniProt P11441) | inactive: -0.015 | inactive: -0.037 | inactive: 0.011 | inactive: -0.001 | inactive: -0.025 | inactive: -0.072 | inactive: 0.082 | inactive: -0.005 | inactive: -0.016 | inactive: 0.03
15 | USP10 isoform 2 (UniProt Q14694) | inactive: -0.067 | inactive: 0.04 | inactive: -0.002 | inactive: 0.062 | inactive: 0.059 | inactive: -0.015 | inactive: 0.097 | inactive: 0.033 | inactive: -0.004 | inactive: -0.042
16 | UHRF1BP1 (UniProt Q6BDS2) | inactive: 0.007 | inactive: 0.023 | inactive: -0.034 | inactive: -0.067 | inactive: 0.097 | active: 0.258 | inactive: 0.03 | inactive: 0.006 |  | inactive: 0.029
17 | UHRF1BP1L (UniProt A0JNW5) | inactive: 0.018 | inactive: -0.051 | inactive: -0.076 | inactive: -0.009 | inactive: 0.193 | active: 0.242 | inactive: -0.004 | inactive: 0.03 |  | inactive: -0.019
18 | VAC14 (UniProt Q08AM6) | inactive: 0.057 | inactive: -0.009 | inactive: 0.025 | inactive: -0.037 | inactive: -0.034 | inactive: -0.089 | inactive: -0.04 | inactive: -0.001 | inactive: 0.009 | inactive: 0.043
19 | USF2 (UniProt Q15853) | inactive: -0.01 | inactive: -0.031 | inactive: -0.042 | inactive: 0.057 | inactive: -0.086 | inactive: -0.005 | inactive: 0.085 | inactive: -0.014 | inactive: 0.05 | inactive: -0.04
20 | UQCC1 (UniProt Q9NVA1) | inactive: 0.023 | inactive: 0.04 | inactive: -0.013 | inactive: -0.025 | inactive: 0.061 | inactive: -0.042 | inactive: -0.026 | inactive: -0.05 | inactive: 0.01 | inactive: -0.014
21 | UBFD1 (UniProt O14562) | inactive: 0.033 | inactive: -0.023 | inactive: -0.013 | inactive: -0.052 | inactive: -0.01 | inactive: 0.041 | inactive: 0 | inactive: -0.029 | inactive: 0.005 | inactive: 0.023
22 | URI1 (UniProt O94763) | inactive: -0.053 | inactive: -0.015 | inactive: -0.015 | inactive: -0.039 | inactive: 0.03 | inactive: -0.009 | inactive: 0.065 | inactive: 0.017 | inactive: -0.025 | inactive: 0
23 | VAPA isoform 2 (UniProt Q9P0L0) | inactive: 0.002 | inactive: 0.005 | inactive: 0.017 | inactive: -0.048 | inactive: 0.061 | inactive: 0.037 | inactive: -0.016 | inactive: -0.048 | inactive: 0.024 | inactive: 0
24 | UQCRH (UniProt P07919) | inactive: -0.063 | inactive: 0.024 | inactive: -0.015 | inactive: -0.068 | inactive: -0.003 | inactive: 0.082 | inactive: -0.005 | inactive: -0.051 | inactive: 0.148 | inactive: -0.035
25 | URI1 isoform 4 (UniProt O94763) | inactive: 0.154 | inactive: 0.014 | inactive: 0.102 | inactive: -0.013 | inactive: -0.247 | inactive: 0.2 | inactive: 0.183 | inactive: -0.037 | inactive: -0.143 | inactive: 0.017
26 | VCL (UniProt P18206) | inactive: 0.015 | inactive: -0.017 | inactive: 0.017 | inactive: -0.012 | inactive: 0.025 | inactive: 0.057 | inactive: -0.017 | inactive: -0.067 | inactive: 0.024 | inactive: -0.013
27 | USP15 (UniProt Q9Y4E8) | inactive: -0.028 | inactive: -0.034 | inactive: 0.008 | inactive: -0.004 | inactive: -0.067 | inactive: -0.154 | inactive: 0.012 | inactive: 0.012 |  | inactive: -0.019
28 | UPF1 (UniProt Q92900) | inactive: -0.01 | inactive: 0.012 | inactive: -0.01 | inactive: -0.015 | inactive: 0.01 | inactive: 0.075 | inactive: 0.011 | inactive: -0.002 | inactive: -0.021 | inactive: 0.052
29 | UGP2 (UniProt Q16851) | inactive: 0.006 | inactive: -0.023 | inactive: -0.026 | inactive: -0.078 | inactive: -0.047 | inactive: 0.068 | inactive: -0.031 | inactive: -0.032 | inactive: 0.003 | inactive: 0.065
30 | USE1 (UniProt Q9NZ43) | inactive: -0.055 | inactive: 0.017 | inactive: -0.043 | inactive: 0.061 | inactive: -0.084 | inactive: 0.016 | inactive: 0.035 | inactive: 0.036 | inactive: 0.02 | inactive: 0.011

Quoted from the listing.
log2 fold change [6], UVRAG (UniProt Q9P2Y5) reads inactive: 0.095
log2 fold change (ralimetinib), UGP2 (UniProt Q16851) reads inactive: -0.078

From entry 23 to 24, as listed above:
Row | Target | log2 fold change (IRAK-1-4 Inhibitor I) | log2 fold change (ibrutinib) | log2 fold change [1] | log2 fold change (ralimetinib) | log2 fold change [2] | log2 fold change [3] | log2 fold change [4] | log2 fold change (pinometostat) | log2 fold change [5] | log2 fold change [6]
23 | VAPA isoform 2 (UniProt Q9P0L0) | inactive: 0.002 | inactive: 0.005 | inactive: 0.017 | inactive: -0.048 | inactive: 0.061 | inactive: 0.037 | inactive: -0.016 | inactive: -0.048 | inactive: 0.024 | inactive: 0
24 | UQCRH (UniProt P07919) | inactive: -0.063 | inactive: 0.024 | inactive: -0.015 | inactive: -0.068 | inactive: -0.003 | inactive: 0.082 | inactive: -0.005 | inactive: -0.051 | inactive: 0.148 | inactive: -0.035

Reference: the supplement of paper PMC10849652
